Measurements: publication PMC12431657, “Discovery and mechanistic insights of dibenzoylmethane as a broad spectrum inhibitor of coronavirus” (PLOS Pathogens, 2025)
Where a name gives a salt, the structure may show the parent alone. Read-outs that look alike come from different tables or passages of the source. The campaign covered roughly 3,300 compounds. About 95 (3%) showed an effect of 50% or more. This is one part of the list.

Test system: HCoV-229E
Design: species or system Huh-7; HTS, protection from HCoV-229E induced cell death, luminescent cell viability (CellCounting-Lite 2.0), inhibition rate
Settings: 24 h post infection, 1 h compound pre-incubation, 10 µM, inhibitor

| Compound | 229E Inhibition rate | 229E Inhibition rate (229E Inhibition rate, 24 h) |
| --- | --- | --- |
| COc1cc(C2Oc3cc([C@H]4Oc5cc(O)cc(O)c5C(=O)[C@@H]4O)ccc3OC2CO)ccc1O (some centres unmarked) [Silybin] | 13% | – |
| OCCCO [1,3-Propanediol] | 49% | – |
| CCCCCCCCCCCCCCOC(C)=O [Tetradecyl acetate] | 20.4% | – |
| N[C@H](CCSSCC[C@@H](N)C(=O)O)C(=O)O (racemic) [DL-Homocystine] | 13% | – |
| NC1CCSC1=O (racemic) [DL-Homocysteine thiolactone (hydrochloride)] | 5.6% | – |
| CC(C)=CCOc1c2occc2cc2ccc(=O)oc12 [Imperatorin] | 7.2% | – |
| CC(C)C(O)C(=O)O (centres unmarked) [2-Hydroxy-3-methylbutanoic acid] | 20.4% | – |
| COc1cc(C[C@@H](CO[C@@H]2O[C@H](CO)[C@@H](O)[C@H](O)[C@H]2O)[C@H](CO[C@@H]2O[C@H](CO)[C@@H](O)[C@H](O)[C@H]2O)Cc2ccc(O)c(OC)c2)ccc1O [Secoisolariciresinol diglucoside] | – | 8.8% |
| C/C=C(\C)C(=O)O [Tiglic acid] | 12.8% | – |
| O=C(OC[C@H]1O[C@@H](Oc2c(-c3ccc(O)c(O)c3)oc3cc(O)cc(O)c3c2=O)[C@H](O)[C@@H](O)[C@H]1O)c1cc(O)c(O)c(O)c1 [Quercetin 3-O-(6''-galloyl)-β-D-galactopyranoside] | 14.1% | – |
| CC1=CC(=O)c2c(O)cccc2C1=O [Plumbagin] | 5.1% | – |
| COc1ccc(CC(=O)O)cc1O [Isohomovanillic acid] | 20.2% | – |
| COc1ccc(C[C@H](N)C(=O)N[C@H]2[C@@H](O)[C@H](n3cnc4c(N(C)C)ncnc43)O[C@@H]2CO)cc1 [Puromycin (dihydrochloride)] | 8.9% | – |
| O=C(O[C@@H]1O[C@@H]2COC(=O)c3cc(O)c(O)c(O)c3-c3c(cc(O)c(O)c3O)C(=O)O[C@H]([C@H]1O)[C@@H]2O)c1cc(O)c(O)c(O)c1 [Corilagin] | 10.8% | – |
| COc1ccc([C@@H]2CC(=O)c3c(O)cc(O[C@@H]4O[C@H](CO)[C@@H](O)[C@H](O)[C@H]4O)cc3O2)cc1O [Hesperetin 7-O-glucoside] | 8% | – |
| O=CCc1ccccc1 [2-Phenylacetaldehyde] | 18.7% | – |
| O=C(O)c1ccncc1 [Isonicotinic acid] | 55% | – |
| CC(=O)O[C@H]([C@@H](O)C[C@@H](C)C1=C2C[C@H](O)[C@H]3[C@@]4(C)CCC(=O)C(C)(C)[C@@H]4CC[C@]3(C)[C@@]2(C)CC1)C(C)(C)O [Alisol A 24-acetate] | 49.8% | – |
| O=C(O)c1cc(O)c2c(c1)[C@H]([C@H]1c3cccc(O)c3C(=O)c3c(O)cc(C(=O)O)cc31)c1cccc(O)c1C2=O [Sennidin B] | 9% | – |
| O=C(O)Cc1cc(O)ccc1O[C@@H]1O[C@H](CO)[C@@H](O)[C@H](O)[C@H]1O [Phaseoloidin] | 18.8% | – |

| Compound | 229E Inhibition rate | 229E Inhibition rate (229E Inhibition rate, 24 h) |
| --- | --- | --- |
| O=c1ccn([C@@H]2O[C@H](CO)[C@@H](O)[C@H]2O)c(=O)[nH]1 [Uridine] | 23.1% | – |
| O=C1OCc2ccccc21 [Phthalide] | 13% | – |
| CC1=C[C@H]2c3c(O)cc(-c4cc5ccc(O)cc5o4)cc3O[C@@]3(c4ccc(O)cc4O)Oc4cc(O)ccc4[C@H](C1)[C@@H]23 [Mulberrofuran G] | 6.6% | – |
| C[C@H](CC(=O)C[C@@H](C)[C@H]1C[C@H](O)[C@@]2(C)C3=C(C(=O)C[C@]12C)[C@@]1(C)CCC(=O)C(C)(C)[C@@H]1C[C@@H]3O)C(=O)O [Ganoderic acid A] | 12.5% | – |
| N[C@H]1C(O)O[C@H](CO)[C@@H](O)[C@@H]1O (some centres unmarked) [Glucosamine] | – | 8% |
| C[C@@H]1CC[C@]2(C(=O)O[C@@H]3O[C@H](CO)[C@@H](O)[C@H](O)[C@H]3O)CC[C@]3(C)C(=CC[C@@H]4[C@@]5(C)C[C@@H](O)[C@H](O)[C@@](C)(CO)[C@@H]5CC[C@]43C)[C@@H]2[C@]1(C)O [Niga-ichigoside F1] | 20.4% | – |
| N[C@H](C(=O)O)[C@@H]1CC(Cl)=NO1 [Acivicin (hydrochloride)] | 0% | – |
| C[n+]1cccc(C(N)=O)c1 [TRIA-662] | 14.4% | – |
| C/C(=C\CC[C@@H](C)[C@H]1CC[C@@]2(C)C3=C(CC[C@]12C)[C@@]1(C)CCC(=O)C(C)(C)[C@@H]1CC3=O)C(=O)O [Ganoderic acid DM] | 10.7% | – |
| CC1(C)CC[C@]2(C(=O)O)CC[C@]3(C)C(=CC[C@@H]4[C@@]5(C)CC[C@H](O)C(C)(C)[C@@H]5CC[C@]43C)[C@@H]2C1 [Oleanolic Acid] | 9.8% | – |
| CC1=C(/C=C/C(C)=C/C=C/C(C)=C/C=C/C=C(C)/C=C/C=C(\C)C=O)C(C)(C)CCC1 [β-Apo-8'-carotenal] | 8.1% | – |
| C[C@@H]1O[C@@H](Oc2cc(O)c3c(=O)c(O)c(-c4ccc(O)cc4)oc3c2)[C@H](O)[C@H](O)[C@H]1O [Kaempferol-7-O-rhamnoside] | 8.4% | – |
| O=c1c(-c2ccc(O)cc2)coc2cc(O)ccc12 [Daidzein] | 0% | – |
| COc1cc(O)c2c(=O)cc(-c3ccc(O)c(OC)c3)oc2c1 [Velutin] | 29.8% | – |
| CCCC(=O)c1c(O)c(CC2=C(O)C(C)(C)C(=O)C(C(C)=O)=C2O)c(O)c(Cc2c(O)c(CC3=C(O)C(C)(C)C(=O)C(C(C)=O)=C3O)c(O)c(C(=O)CCC)c2O)c1O [Dryocrassin ABBA] | 49.1% | – |
| O=C(CO)[C@@H](O)[C@H](O)[C@H](O)COP(=O)(O)O [D-Fructose-6-phosphate (disodium) salt] | 13% | – |
| Cc1ncc(CO)c(CN)c1O [Pyridoxylamine (dihydrochloride)] | – | 23.1% |
| C=C(C)[C@H](C)c1cc(/C=C/C(=O)c2ccc(O)cc2)c(OC)cc1O [Licochalcone E] | 61.6% | – |
| CC1(C)CC[C@]2(C(=O)O[C@@H]3O[C@H](CO)[C@@H](O)[C@H](O)[C@H]3O)CC[C@]3(C)C(=CC[C@@H]4[C@@]5(C)CC[C@H](O[C@@H]6O[C@H](CO)[C@@H](O)[C@H](O[C@@H]7O[C@H](CO)[C@@H](O)[C@H](O)[C@H]7O)[C@H]6O[C@@H]6O[C@H](CO)[C@@H](O)[C@H](O)[C@H]6O)[C@@](C)(CO)[C@@H]5CC[C@]43C)[C@@H]2C1 [Araloside VII] | 12.5% | – |
| CCCCCCCCCCCCCCCCCCCCCC(=O)O[C@H]1CC[C@@]2(C)C(=CC[C@H]3[C@@H]4CC[C@H]([C@H](C)CCCC(C)C)[C@@]4(C)CC[C@@H]32)C1 [Cholesteryl behenate] | 11.6% | – |

Part of the list above, field by field.
O=C(CO)[C@@H](O)[C@H](O)[C@H](O)COP(=O)(O)O [D-Fructose-6-phosphate (disodium) salt]
  229E Inhibition rate: 13%
Cc1ncc(CO)c(CN)c1O [Pyridoxylamine (dihydrochloride)]
  229E Inhibition rate (229E Inhibition rate, 24 h): 23.1%
C=C(C)[C@H](C)c1cc(/C=C/C(=O)c2ccc(O)cc2)c(OC)cc1O [Licochalcone E]
  229E Inhibition rate: 61.6%
CC1(C)CC[C@]2(C(=O)O[C@@H]3O[C@H](CO)[C@@H](O)[C@H](O)[C@H]3O)CC[C@]3(C)C(=CC[C@@H]4[C@@]5(C)CC[C@H](O[C@@H]6O[C@H](CO)[C@@H](O)[C@H](O[C@@H]7O[C@H](CO)[C@@H](O)[C@H](O)[C@H]7O)[C@H]6O[C@@H]6O[C@H](CO)[C@@H](O)[C@H](O)[C@H]6O)[C@@](C)(CO)[C@@H]5CC[C@]43C)[C@@H]2C1 [Araloside VII]
  229E Inhibition rate: 12.5%

Remaining list, next part.

| Compound | 229E Inhibition rate | 229E Inhibition rate (229E Inhibition rate, 24 h) |
| --- | --- | --- |
| CC1(C)CC[C@]2(C(=O)O)CC[C@]3(C)C(=CC[C@@H]4[C@@]5(C)CC[C@@H](O)C(C)(C)[C@@H]5CC[C@]43C)[C@@H]2C1 [3-Epioleanolic acid] | 2.7% | – |
| CC1=CC(=O)CC1 [3-Methyl-2-cyclopenten-1-one] | 14.3% | – |
| C[C@H](CC[C@@]1(O)O[C@H]2C[C@H]3[C@@H]4CC=C5C[C@@H](O[C@@H]6O[C@H](CO)[C@@H](O[C@@H]7O[C@@H](C)[C@H](O)[C@@H](O)[C@H]7O)[C@H](O)[C@H]6O[C@@H]6O[C@@H](C)[C@H](O)[C@@H](O)[C@H]6O)CC[C@]5(C)[C@H]4CC[C@]3(C)[C@H]2[C@@H]1C)CO[C@@H]1O[C@H](CO)[C@@H](O)[C@H](O)[C@H]1O [Protodioscin] | 7.5% | – |
| CCCCOC(=O)c1ccccc1C(=O)O [Monobutyl phthalate] | 11.8% | – |
| Cc1nc(C)c(C)nc1C [Ligustrazine (hydrochloride)] | – | 3.7% |
| Cc1occc1SSc1ccoc1C [Bis(2-methyl-3-furyl)disulfide] | 22.5% | – |
| O[C@H](c1ccccc1)[C@H](O)c1ccccc1 [(R,R)-(+)-Hydrobenzoin] | 11.5% | – |
| COC(=O)[C@H]1O[C@@H](Oc2cc3oc(-c4ccccc4)cc(=O)c3c(O)c2O)[C@H](O)[C@@H](O)[C@@H]1O [Baicalin methyl ester] | 21% | – |
| COc1c(C)c2c(c(O)c1C/C=C(\C)CCC(=O)O)C(=O)OC2 [Mycophenolic acid] | 35% | – |
| CC(C)C[C@H](NC(=O)CN)C(=O)O [Glycyl-L-leucine] | 13.8% | – |
| CC(C)c1ccc2c(c1)CC[C@H]1[C@](C)(CN)CCC[C@]21C [Leelamine (hydrochloride)] | 5.7% | – |
| Nc1ccc(C(=O)O)cc1 [4-Aminobenzoic acid] | 0% | – |
| O=C(O)C1=CO[C@@H](O[C@@H]2O[C@H](CO)[C@@H](O)[C@H](O)[C@H]2O)[C@@H]2C(CO)=CC[C@H]12 [Geniposidic acid] | 6.8% | – |
| Cc1ncc(CO)c(CN)c1O [Pyridoxylamine] | – | 22.7% |
| CCCCCCCC/C=C\CCCCCCCC(=O)NCc1ccccc1 [N-Benzyloleamide] | 52.8% | – |
| CC(=O)N[C@@H](CCCN=C(N)N)C(=O)O [N-Acetyl-L-arginine] | 23% | – |
| O=C1O[C@H]([C@@H](O)CO)C(=O)C1=O [Dehydroascorbic acid] | 15.1% | – |
| O=C(O)CC(O)(CC(=O)O)C(=O)O [Lithium citrate (tetrahydrate)] | – | 15.8% |
| COc1c(O)cc2oc(-c3ccc(O)cc3)cc(=O)c2c1O [Hispidulin] | 32.8% | – |
